# Measured values from patent publication US20200207782A1, “CHEMICALLY ACTIVATED WATER-SOLUBLE PRODRUG” (SUMITOMO DAINIPPON PHARMA CO., LTD, priority 2017, published 2020).
# Where “and” joins values, the source holds several entries; their conditions need not be identical. Equal entries are not always repeated. Structures can show the parent of a compound that is named as a salt. For at least one compound, name, drawing or mass did not settle the structure.
# Assay: Solution stability test (residual ratio and generation of active form in buffers of pH 2.0 to 9.0)
# Assay type: physicochemical
# Parameters: Rate of generation of active form after 24 hours in buffer with pH of 7.4: tested at 25 µM
# Conditions: 25° C.; for Residual ratio: 25 umol/L
# Method: The test compounds were incubated at 25° C. at a concentration of 25 umol/L in a buffer prepared to have a pH of 2.0, 3.0, 5.0, 7.4, and 9.0. The compounds were measured by HPLC after 0, 3, 6, 9, 12, and 24 hours.
# The buffers used at each pH are the following. • pH 2.0: 50 mmol/L glycine buffer • pH 3.0: 50 mmol/L citrate buffer • pH 5.0: 50 mmol/L citrate buffer • pH 7.4: 50 mmol/L phosphate buffer • pH 9.0: 50 mmol/L glycine buffer
# The measurement conditions for HPLC are the following.
# The yield of the Example and Reference Example compounds and active forms is calculated with each of the peak area of the Example and Reference Example compounds at 0 minutes and the peak area upon dissolution of the corresponding active form at 100 umol/L as 100%. The yield is denoted in terms of %
compound,measurement,setting,value
"CC1(C)CCc2c(OC(=O)NCCNCC(=O)O)c(OC(=O)NCCNCC(=O)O)c3ccccc3c2O1 [Example 4, 2,2′-[(2,2-Dimethyl-3,4-dihydro-2H-benzo[H]chromene-5,6-diyl)bis(oxycarbonyliminoethane-2,1-diylimino)]diacetic acid dihydrochloride]",Residual ratio,"pH2.0 buffer, 0 hr",100%
same,Residual ratio,"pH2.0 buffer, 3 hr",100%
same,Residual ratio,"pH2.0 buffer, 6 hr",98.6%
same,Residual ratio,"pH2.0 buffer, 9 hr",97.0%
same,Residual ratio,"pH2.0 buffer, 12 hr",97.1%
same,Residual ratio,"pH2.0 buffer, 24 hr",96.7%
same,Residual ratio,"pH3.0 buffer, 0 hr",100%
same,Residual ratio,"pH3.0 buffer, 3 hr",100%
same,Residual ratio,"pH3.0 buffer, 6 hr",100%
same,Residual ratio,"pH3.0 buffer, 9 hr",100%
same,Residual ratio,"pH3.0 buffer, 12 hr",100%
same,Residual ratio,"pH3.0 buffer, 24 hr",100%
same,Residual ratio,"pH5.0 buffer, 0 hr",100%
same,Residual ratio,"pH5.0 buffer, 3 hr",93.4%
same,Residual ratio,"pH5.0 buffer, 6 hr",88.1%
same,Residual ratio,"pH5.0 buffer, 9 hr",84.4%
same,Residual ratio,"pH5.0 buffer, 12 hr",80.3%
same,Residual ratio,"pH5.0 buffer, 24 hr, dihydrochloride",78% and 78.1%
same,Residual ratio,"pH7.4 buffer, 0 hr",30.1%
same,Residual ratio,"pH7.4 buffer, 3 hr, dihydrochloride",~0% and 0.9%
same,Residual ratio,"pH7.4 buffer, 6 hr",0.3%
same,Residual ratio,"pH7.4 buffer, 9 hr",0.0%
same,Residual ratio,"pH7.4 buffer, 12 hr",0.0%
same,Residual ratio,"pH7.4 buffer, 24 hr",0.0%
same,Rate of generation of active form after 24 hours in buffer with pH of 7.4,"pH 7.4 buffer, 24 hours",37%
same,Residual ratio,"pH9.0 buffer, 0 hr, dihydrochloride",~0% and 1.3%
same,Residual ratio,"pH9.0 buffer, 3 hr",0.2%
same,Residual ratio,"pH9.0 buffer, 6 hr",0.4%
same,Residual ratio,"pH9.0 buffer, 9 hr",0.4%
same,Residual ratio,"pH9.0 buffer, 12 hr",0.3%
same,Residual ratio,"pH9.0 buffer, 24 hr",0.4%
